Data as given in PubChem BioAssay AID1159508 (Drosophila RNAi Screening Center, 2015).

Assay: 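Overall cell fitness after RNAi as a quality check of the library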
System: Drosophila S2R+ cells
Reagents: long dsRNA against Drosophila genes
Time to read-out: 5 days
Read-out: 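Luminescent ATP signal as a proxy for cell fitness after 5 days of RNAi, given as a z-score in each replicate and averaged over replicates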
Scale: mean ATP z-score and ATP z-score: higher = more total ATP luminescence
Rule for the call: In these data the active calls have mean ATP z-score at about -2 or lower, or at about 2 or higher
Meaning of the calls: active = strong ATP change (up or down); inactive = no strong ATP change
In all, the deposit lists 812 reagents; shown is a random part of them. In the full data, 18 (2.2%) are marked active. 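Calls include both increased and decreased ATP; roughly one in four reagents has no third replicate value.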 The record does not give: the amount of reagent.

no.	target	dsRNA	mean ATP z-score	ATP z-score, replicate 1	ATP z-score, replicate 2	ATP z-score, replicate 3	outcome
1	Rrp42	DRSC07161	-0.276	-0.425	-0.303	-0.0472	inactive
2	Rrp42	DRSC42675	0.37	-0.293	0.418	0.914	inactive
3	SLIRP2	DRSC16363	-0.358	-0.508	-0.283	-0.215	inactive
4	SLIRP2	DRSC26237	-0.081	-0.652	-0.262	0.686	inactive
5	loqs	DRSC02997	0.075	-0.138	0.1	0.249	inactive
6	loqs	DRSC42666	-0.0508	-0.13	-0.0847	0.0715	inactive
7	Upf2	DRSC27785	0.505	0.115	0.484	0.818	inactive
8	Upf2	DRSC32648	0.639	0.314	0.41	1.07	inactive
9	hfp	DRSC25143	-1.93	-2.01	-1.92	-1.48	inactive
10	hfp	DRSC31973	-1.1	-1.12	-1.07	-0.888	inactive
11	CG11837	DRSC14397	1.13	0.185	0.836	2.16	inactive
12	CG11837	DRSC42705	-0.211	-0.96	0.0879	0.281	inactive
13	Dis3l2	DRSC08496	0.342	-0.229	0.0211	1.17	inactive
14	Dis3l2	DRSC42683	0.107	-0.767	0.224	0.844	inactive
15	eEF2	DRSC03737	0.7	0.627	0.682		inactive
16	eEF2	DRSC32107	2.41	2.14	2.38		active
17	rump	DRSC16480	1.3	0.926	1.29	1.44	inactive
18	rump	DRSC42718	0.855	0.351	0.959	1.09	inactive
19	ais	DRSC10523	-0.442	-0.475	-0.437	-0.33	inactive
20	ais	DRSC25460	0.715	0.512	0.643	0.852	inactive
21	qkr58E-1	DRSC23841	0.711	0.356	0.976		inactive
22	qkr58E-1	DRSC40911	-0.0468	-0.288	-0.0404	0.197	inactive
23	Rox8	DRSC16829	0.828	0.0739	1.08	1.17	inactive
24	Rox8	DRSC29536	0.178	-0.281	0.614		inactive
25	cup	DRSC24610	0.0158	-0.0641	0.0936		inactive
26	cup	DRSC35662	0.761	0.563	0.762	0.812	inactive
27	eIF3k	DRSC27734	0.752	0.543	0.864		inactive
28	eIF3k	DRSC32305	-0.434	-0.775	-0.579	0.135	inactive
29	BicC	DRSC02005	0.441	-0.168	0.2	1.21	inactive
30	BicC	DRSC29676	-0.231	-0.359	-0.074		inactive
31	Nufip	DRSC10397	0.0915	-0.203	-0.172	0.632	inactive
32	Nufip	DRSC35900	0.16	-0.144	0.444		inactive
33	nonA-l	DRSC17017	0.497	0.397	0.498	0.501	inactive
34	nonA-l	DRSC25387	0.875	0.371	0.865	1.22	inactive
35	CG7006	DRSC16169	-0.168	-0.455	0.141		inactive
36	CG7006	DRSC36269	0.256	-0.222	-0.0366	0.976	inactive
37	Irp-1B	DRSC16720	1.13	0.894	0.968	1.32	inactive
38	Irp-1B	DRSC24261	-0.821	-1.11	-0.721	-0.476	inactive
39	mago	DRSC04703	-0.0797	-0.116	-0.0327		inactive
40	mago	DRSC31313	0.517	-0.323	0.57	1.2	inactive
41	CG10341	DRSC02040	0.296	-0.134	0.689		inactive
42	CG10341	DRSC42669	-1.14	-1.41	-0.899	-0.892	inactive
43	D	DRSC25367	-0.448	-0.422	-0.417		inactive
44	D	DRSC40488	0.484	-0.317	0.612	1.06	inactive
45	Syp	DRSC29126	-0.537	-1.03	-0.39	-0.0903	inactive
46	Syp	DRSC34987	0.0126	-0.416	-0.167	0.618	inactive
47	NAT1	DRSC30053	-1.61	-1.63	-1.39		inactive
48	NAT1	DRSC33055	-0.834	-0.883	-0.736	-0.723	inactive
49	eEF1beta	DRSC24367	-0.642	-0.921	-0.734	-0.146	inactive
50	eEF1beta	DRSC42518	0.505	0.207	0.544	0.668	inactive
51	orb	DRSC34286	-0.46	-1.11	0.25		inactive
52	orb	DRSC34287	0.481	-0.0524	0.615	0.787	inactive
53	Sbds	DRSC10992	0.0542	-0.0608	0.162		inactive
54	Sbds	DRSC42686	0.487	0.197	0.522	0.649	inactive
55	eIF3f2	DRSC04903	0.917	0.726	0.99		inactive
56	eIF3f2	DRSC35543	-0.23	-0.379	-0.051		inactive
57	vig	DRSC03631	0.558	0.332	0.576	0.659	inactive
58	vig	DRSC21672	0.699	0.0912	0.916	0.954	inactive
59	Su(var)205	DRSC03446	0.585	0.422	0.461	0.76	inactive
60	Su(var)205	DRSC37257	0.848	0.62	0.737	1.02	inactive

Copied from the list:
Under “mean ATP z-score”, Dis3l2 [DRSC42683] shows 0.107
mago [DRSC31313], ATP z-score, replicate 2 = 0.57
Nufip [DRSC10397], outcome = inactive
Su(var)205 [DRSC03446], ATP z-score, replicate 1 → 0.422
Result of mago [DRSC04703] under “mean ATP z-score”: -0.0797
Result for ais [DRSC25460] in “ATP z-score, replicate 2”: 0.643
